Read-outs that look alike come from different tables or passages of the source.
Columns and labels:
Assay type in all cases: cell-based
HEK293 Mock transfected = experiment: Anticancer activity in mock transfected HEK293; conditions: Homo sapiens, Bcr-Abl negative
Description: (§1) A panel of NSCLC cell lines harboring different EGFR mutations were purchased from American Type Culture Collection (ATCC; Manassas, VA, USA). They include H292 (bearing wild type EGFR), HCC827 (bearing EGFR sensitizing E746_A750 deletion) and H1975 (bearing the resistance causing EGFR T790M secondary mutation). The leukemic cell line K562 (harboring wild type Bcr Abl) and RPMI8226 (no Bcr Abl expression) were generous gift from Dr. Susan Bates (National Cancer Institute, NIH, Bethesda, MD, USA). […]. The HEK293T cells (from ATCC) were stably transfected with the wild type Bcr Abl or its E255K mutant. H292, HCC827, H1975, RPMI8226 cells were maintained in RPMI1640 medium supplemented with 10% fetal bovine serum, 100 units/mL streptomycin sulfate, and 100 units/mL penicillin G sulfate, and incubated at 37 °C in 5% CO2. K562, K562 Ima1.0, HEK293T stable transfected cell lines were grown in DMEM medium supplemented with 10% fetal bovine serum, 100 units/mL streptomycin sulfate, 100 units/mL penicillin G sulfate.

K562 = experiment: Anticancer activity (cytotoxicity) in CML cell line; conditions: Homo sapiens
Description: as §1

K562 Ima1.0 = experiment: Anticancer activity in imatinib-selected resistant K562 subline; conditions: Homo sapiens, K562, read-out: Anticancer activity (IC50) K562 Imatinib selected (K562 Ima1.0); Bcr-Abl amplification

Cc1ccc(NC(=O)c2ccc(CN3CCN(C)CC3)cc2)cc1Nc1nccc(-c2cccnc2)n1 [Imatinib, reference compound]
IC50 (HEK293 Mock transfected): 11.6 ± 2.19 µM | IC50 (K562; CML cell line, Bcr-Abl positive, Table 1, read-out: Anticancer activity (IC50) K562): 0.15 ± 0.02 µM | IC50 (K562; Table 2, read-out: Anticancer activity (IC50) K562 Sensitive parental): 0.15 ± 0.02 µM | IC50 (K562 Ima1.0): 2.08 ± 0.48 µM

— publication PMC4858680, “A platinum-based hybrid drug design approach to circumvent acquired resistance to molecular targeted tyrosine kinase inhibitors” (Scientific Reports, 2016)
